Experimental data reported in patent publication US20160136109A1, “COMPOSITIONS FOR TISSUE STABILIZATION” (Vatrix Medical, Inc., priority 2008, published 2016).

Tested on: porcine suprarenal thoracic aorta
Assay: Ring opening angle of treated aorta rings (Example 6)
Details: 25 min at 37° C.

O=CCCCC=O [Glut, Glutaraldehyde]
sequence of the opening angles (0.02% Glut): Fresh (control)>lo Glut>PGG>PGG+lo Glut>hi Glut>PGG+hi Glut
sequence of the opening angles (0.20% Glut): Fresh (control)>lo Glut>PGG>PGG+lo Glut>hi Glut>PGG+hi Glut
